Laboratory results as given in PubChem BioAssay.
This list was built around the results that the source calls inconclusive (neither active nor inactive); the mix of calls is not that of the screen. Calls of active or inactive are those of the source.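 The calls were made as follows: active = Fgf4 expression under 0.8 fold of control in both repeat measurements at one or both tested doses; inconclusive = under 0.8 fold in just a single repeat measurement; inactive = the rest.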

test: Fgf4 repression measured by qPCR – cell-based, mouse ESC, RT-qPCR, cherry-pick, esBAF inhibitor project, confirmation (AID 743177); conditions: mouse ESC E14, Fgf4 mRNA qPCR fold change; at 33 µM; active compounds read low;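 also: Fgf4 transcript normalised to actin in duplex TaqMan qPCR; cells exposed to compound for 24 h before lysis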

Fgf4 expression fold change, inconclusive:
CN(C)c1ccc(CSc2ccccc2)cc1 1.17
O=C(Nc1ccc2oc(-c3ccccc3)nc2c1)c1cccs1 0.57
c1ccc(Nc2cccc(Nc3ccccc3)n2)cc1 0.89
Cc1ccc(NC(=O)c2ccc3c(=O)n4c(nc3c2)CCC4)cc1F 1.01
Cc1cc(C)c2c(CN(C)Cc3ccccc3)cc(=O)oc2c1 0.945
Cn1cccc1C(=O)OCc1ccc(C(C)(C)C)cc1 0.745
CCN(C(=O)CN1C(=O)S/C(=C\C=C\c2ccccc2)C1=O)C1CCS(=O)(=O)C1 (stereo not given) 0.67
COc1ccc(NC(=O)c2cc(-c3cccs3)on2)cc1 0.534
CN(C)c1ccc(-c2csc(C(O)c3ccccc3)n2)cc1 (stereo not given) 0.788
O=C(NC1CCCCC1)c1cc(-c2cccc(Cl)c2)on1 0.686
Nc1nc(-c2cccc(F)c2)cs1 0.668
CC(C)Cc1ccc(-c2ccc3nccn3c2)cc1 0.791
Cc1ccc(NC(=O)C2CCCN(c3ncccn3)C2)cc1F (stereo not given) 0.758
COc1ccc(-c2cc(C(=O)Nc3cccnc3)no2)cc1OC 0.682
COc1ccc(-n2nc(C(=O)NCC(=O)N3CCN(c4ccccc4F)CC3)c3ccccc3c2=O)cc1 0.988
OC(c1ccccc1)c1nc(/C=C/c2ccccc2)cs1 (stereo not given) 0.675
COc1ccc(-c2csc(Nc3cc(C)ccn3)n2)cc1C 0.748
c1ccc(CCNc2ccc3c(c2)Cc2ccccc2-3)nc1 0.76
COc1cccc(OCc2cc(C(=O)N(C)Cc3nc4ccccc4[nH]3)no2)c1 0.753
CC(C)(C)Nc1nc(Cl)nc(Nc2ccccc2)n1 0.724
O=C(COc1ccc(/C=N/NC(=O)c2cc3ccccc3o2)cc1Br)Nc1ccccc1 0.621
COc1ccc(NC(=O)O/N=C/c2ccccc2)cc1 0.75

3 entries out of the list, arranged by formula weight, ascending:
Fgf4 expression fold change, inconclusive:
O=C(Nc1ccc2oc(-c3ccccc3)nc2c1)c1cccs1 0.57
COc1cccc(OCc2cc(C(=O)N(C)Cc3nc4ccccc4[nH]3)no2)c1 0.753
O=C(COc1ccc(/C=N/NC(=O)c2cc3ccccc3o2)cc1Br)Nc1ccccc1 0.621

Following part:

Fgf4 expression fold change, active:
C=CCNc1nc(NCc2cccc(OC)c2)c2sc(-c3ccccc3)cc2n1 0.3

Fgf4 expression fold change, inactive:
COc1cccc(NC(=O)C(=O)NCCC2CCCCN2S(=O)(=O)c2cccs2)c1 (stereo not given) 0.936
Cc1ccnc(NC(=O)c2ccc3c(c2)C(=O)N(CC(C)C)C3=O)c1 0.84
Cc1cccc(C)c1OCc1cc(C(=O)N2CCC(C3CCCCC3)C2)no1 (stereo not given) 0.865
CN(C)c1ccc(N=Cc2nc(-c3ccccc3)oc2OC(=O)c2cccc(Br)c2)cc1 0.997
COc1cccc(C(=O)Nc2ccc(Cl)c(C(F)(F)F)c2)c1 0.977
COc1ccc2c(=O)c3ccccc3oc2c1 1.02
Cn1c(C(=O)N/N=C/c2ccccc2)cc2ccccc21 0.858
Cc1cc(NC(=O)Nc2ccc3c(ccn3C)c2)sn1 0.938
COc1ccc(Cl)cc1C(=O)NNC(=O)c1cccs1 0.956
CC(=O)c1cccc(OCc2cc(C(=O)NCCC3=CCCCC3)no2)c1 1.1
NC(=O)c1sc2nc(-c3cccs3)ccc2c1N 0.942
COc1cc(Cl)c(C)cc1NC(=O)c1cccc(OC)c1OC 0.856
CCc1nnc(NC(=O)c2ccc3c(=O)n4c(nc3c2)CCC4)s1 0.939
OC(c1ccccc1)c1nc(-c2ccc3c(c2)OCO3)cs1 (stereo not given) 0.836
O=C(Nc1nccs1)C(=O)c1c[nH]c2ccccc12 0.872
CN(C)c1ccc(N=Nc2ccccc2C(=O)OCC(=O)Nc2ccccc2C(F)(F)F)cc1 1.01
CC(C)C(=O)N1CCN(c2nc3ccc(Cl)cc3s2)CC1 0.957
